Data reported in paper PMC9894685, “Abscisic acid agonists suitable for optimizing plant water use” (Frontiers in Plant Science, 2023).

Tested on: RCAR11-HAB1
Test: In vitro phosphatase assay, HAB1 with RCAR11
Assay type: biochemical, Arabidopsis thaliana
Settings: Fig. 3D

Row | SMILES | Statistical significance of RCAR11-mediated inhibition of HAB1 phosphatase activity vs ABA (0.003 µM) | Statistical significance of RCAR11-mediated inhibition of HAB1 phosphatase activity vs ABA (0.01 µM) | Statistical significance of RCAR11-mediated inhibition of HAB1 phosphatase activity vs ABA (0.03 µM) | Statistical significance of RCAR11-mediated inhibition of HAB1 phosphatase activity vs ABA (0.1 µM) | Statistical significance of RCAR11-mediated inhibition of HAB1 phosphatase activity vs ABA (0.3 µM) | Statistical significance of RCAR11-mediated inhibition of HAB1 phosphatase activity vs ABA (1 µM) | Statistical significance of RCAR11-mediated inhibition of HAB1 phosphatase activity vs ABA (3 µM) | Statistical significance of RCAR11-mediated inhibition of HAB1 phosphatase activity vs ABA (10 µM) | Statistical significance of RCAR11-mediated inhibition of HAB1 phosphatase activity vs ABA (30 µM) | Statistical significance of RCAR11-mediated inhibition of HAB1 phosphatase activity vs ABA (100 µM) | Statistical significance of RCAR11-mediated inhibition of HAB1 phosphatase activity vs CCP1 (0.003 µM) | Statistical significance of RCAR11-mediated inhibition of HAB1 phosphatase activity vs CCP1 (0.01 µM) | Statistical significance of RCAR11-mediated inhibition of HAB1 phosphatase activity vs CCP1 (0.03 µM) | Statistical significance of RCAR11-mediated inhibition of HAB1 phosphatase activity vs CCP1 (0.1 µM) | Statistical significance of RCAR11-mediated inhibition of HAB1 phosphatase activity vs CCP1 (0.3 µM) | Statistical significance of RCAR11-mediated inhibition of HAB1 phosphatase activity vs CCP1 (1 µM) | Statistical significance of RCAR11-mediated inhibition of HAB1 phosphatase activity vs CCP1 (3 µM) | Statistical significance of RCAR11-mediated inhibition of HAB1 phosphatase activity vs CCP1 (10 µM) | Statistical significance of RCAR11-mediated inhibition of HAB1 phosphatase activity vs CCP1 (30 µM) | Statistical significance of RCAR11-mediated inhibition of HAB1 phosphatase activity vs CCP1 (100 µM)
1 | CC(=C/C(=O)O)/C=C/C(O)(C(C)C)C1(C#N)CC1 (stereo not drawn) [CCP1, (2Z,4E)-6-(1-cyanocyclopropyl)-3-methyl-6-hydroxy-7-methylocta-2,4-dienoic acid] | ns (Otherwise, the difference is regarded as insignificant indicated as “ns”) | ns (Otherwise, the difference is regarded as insignificant indicated as “ns”) | ns (Otherwise, the difference is regarded as insignificant indicated as “ns”) | ns (Otherwise, the difference is regarded as insignificant indicated as “ns”) | ns (Otherwise, the difference is regarded as insignificant indicated as “ns”) | ns (Otherwise, the difference is regarded as insignificant indicated as “ns”) | ns (Otherwise, the difference is regarded as insignificant indicated as “ns”) | ns (Otherwise, the difference is regarded as insignificant indicated as “ns”) | ns (Otherwise, the difference is regarded as insignificant indicated as “ns”) | ns (Otherwise, the difference is regarded as insignificant indicated as “ns”) | – | – | – | – | – | – | – | – | – | –
2 | CCC(=C/C(=O)O)/C=C/C(O)(C(C)C)C1(C#N)CC1 (stereo not drawn) [CCP2] | ns (Otherwise, the difference is regarded as insignificant indicated as “ns”) | ns (Otherwise, the difference is regarded as insignificant indicated as “ns”) | ns (Otherwise, the difference is regarded as insignificant indicated as “ns”) | ns (Otherwise, the difference is regarded as insignificant indicated as “ns”) | s (P < 0.05 (one-way ANOVA) is considered as a significant difference and expressed as “s”) | ns (Otherwise, the difference is regarded as insignificant indicated as “ns”) | ns (Otherwise, the difference is regarded as insignificant indicated as “ns”) | ns (Otherwise, the difference is regarded as insignificant indicated as “ns”) | ns (Otherwise, the difference is regarded as insignificant indicated as “ns”) | ns (Otherwise, the difference is regarded as insignificant indicated as “ns”) | ns (Otherwise, the difference is regarded as insignificant indicated as “ns”) | ns (Otherwise, the difference is regarded as insignificant indicated as “ns”) | ns (Otherwise, the difference is regarded as insignificant indicated as “ns”) | s (P < 0.05 (one-way ANOVA) is considered as a significant difference and expressed as “s”) | s (P < 0.05 (one-way ANOVA) is considered as a significant difference and expressed as “s”) | ns (Otherwise, the difference is regarded as insignificant indicated as “ns”) | ns (Otherwise, the difference is regarded as insignificant indicated as “ns”) | ns (Otherwise, the difference is regarded as insignificant indicated as “ns”) | ns (Otherwise, the difference is regarded as insignificant indicated as “ns”) | ns (Otherwise, the difference is regarded as insignificant indicated as “ns”)
